Measured values taken from paper PMC4583546.

Protein sequences, listed by entry. Tags and fused reporters are not part of them. Lines headed by an entry give the natural chain unless they say otherwise; changes in a name come on top.
UniProt Q92630: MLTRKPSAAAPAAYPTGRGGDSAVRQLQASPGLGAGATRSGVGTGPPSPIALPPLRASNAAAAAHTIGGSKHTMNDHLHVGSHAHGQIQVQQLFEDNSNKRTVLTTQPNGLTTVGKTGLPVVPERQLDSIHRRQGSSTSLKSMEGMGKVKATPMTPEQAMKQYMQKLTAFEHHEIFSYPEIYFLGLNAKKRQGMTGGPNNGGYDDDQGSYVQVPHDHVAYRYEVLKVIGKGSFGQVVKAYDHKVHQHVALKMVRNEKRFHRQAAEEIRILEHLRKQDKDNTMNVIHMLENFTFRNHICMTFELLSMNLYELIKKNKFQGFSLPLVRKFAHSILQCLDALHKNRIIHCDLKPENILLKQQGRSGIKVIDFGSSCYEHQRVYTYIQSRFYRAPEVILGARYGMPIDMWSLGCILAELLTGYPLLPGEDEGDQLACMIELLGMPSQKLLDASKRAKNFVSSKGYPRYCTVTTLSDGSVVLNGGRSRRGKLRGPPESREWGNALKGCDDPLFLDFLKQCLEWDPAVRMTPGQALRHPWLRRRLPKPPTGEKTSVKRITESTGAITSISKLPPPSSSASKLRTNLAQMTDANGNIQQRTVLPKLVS
UniProt Q9UHD2: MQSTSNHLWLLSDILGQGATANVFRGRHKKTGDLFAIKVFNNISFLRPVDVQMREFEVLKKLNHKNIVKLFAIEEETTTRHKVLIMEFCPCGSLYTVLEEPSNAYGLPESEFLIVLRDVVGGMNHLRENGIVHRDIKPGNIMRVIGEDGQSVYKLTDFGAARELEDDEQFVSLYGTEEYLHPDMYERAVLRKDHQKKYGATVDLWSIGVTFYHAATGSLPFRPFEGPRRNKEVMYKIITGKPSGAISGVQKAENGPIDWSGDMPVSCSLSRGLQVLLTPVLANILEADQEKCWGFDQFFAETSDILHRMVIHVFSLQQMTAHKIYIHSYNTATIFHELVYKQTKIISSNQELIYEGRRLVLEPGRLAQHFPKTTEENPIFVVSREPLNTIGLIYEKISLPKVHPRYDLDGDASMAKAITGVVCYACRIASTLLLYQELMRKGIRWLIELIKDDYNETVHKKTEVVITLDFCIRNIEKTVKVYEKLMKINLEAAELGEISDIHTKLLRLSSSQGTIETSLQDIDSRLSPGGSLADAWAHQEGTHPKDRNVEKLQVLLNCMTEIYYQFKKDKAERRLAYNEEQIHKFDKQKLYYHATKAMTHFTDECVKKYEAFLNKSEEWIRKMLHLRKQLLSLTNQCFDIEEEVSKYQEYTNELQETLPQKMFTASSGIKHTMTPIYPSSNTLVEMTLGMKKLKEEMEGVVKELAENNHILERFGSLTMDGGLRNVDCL

Target: dual-specificity tyrosine-(Y)-phosphorylation-regulated kinase 2 (DYRK2) (human) (UniProt Q92630)
Experiment: co-IP; 293 cells transiently transfected with HA- and Flag-tagged plasmids; lysis in 20 mM Tris pH 7.5, 150 mM NaCl, 1% Triton, 1 mM EDTA; indicated antibody (anti-Flag in Fig 5B, 5D) or control IgG with protein G agarose, 4 h at 4°C; washes with 0.5 M NaCl; immunoblot with anti-HA or anti-Flag; Fig 6E with MG132, with or without overexpressed DYRK2

Substance: TANK-binding kinase 1 (TBK1) (from UniProt Q9UHD2 1-729) (enzyme)
- binding: binds

Results are given in words; binding and its absence hold for the method and conditions named. Binding seen in cells or lysates may run through a third protein. Binding can be weak; no strength is given.
